This passage reports binding results from PMC6082570.

Amino acid sequences for entries named in this document (tags omitted).
UniProt P68559: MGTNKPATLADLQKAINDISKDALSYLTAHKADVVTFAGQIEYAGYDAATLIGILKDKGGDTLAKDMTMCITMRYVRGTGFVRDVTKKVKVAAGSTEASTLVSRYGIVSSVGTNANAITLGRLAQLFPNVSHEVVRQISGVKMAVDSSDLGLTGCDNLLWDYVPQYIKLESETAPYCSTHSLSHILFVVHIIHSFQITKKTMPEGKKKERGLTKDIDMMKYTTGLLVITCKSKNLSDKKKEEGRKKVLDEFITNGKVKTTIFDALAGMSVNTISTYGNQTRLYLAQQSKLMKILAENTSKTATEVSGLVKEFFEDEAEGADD

The assay concerns the target nucleocapsid protein (NP) of rice stripe virus, bait in pDHB1 (rice stripe virus) (UniProt P68559). Nature of the assay: two-hybrid; split-ubiquitin yeast two-hybrid (DUALhunter), yeast strain NMY51; bait pDHB1-viral protein, prey pPR3-LsST6; growth on QDO (SD-trp-leu-his-ade) with 20 mM 3-AT, 30°C; β-galactosidase activity assay of clones grown on DDO.

These are yes or no findings as the source states them, for the method shown. Binding calls can cover weak binding; strength is not graded here.

With “sugar transporter 6 of Laodelphax striatellus (LsST6), prey in pPR3-N (from UniProt A0A345BJV6)”, the binding result is recorded as “binds”.
